This test concerns the target TNF (UniProt P01375). Nature of the test: co-IP; 2000 μg protein lysate (500 μL) with primary antibody (anti-GFP, anti-Flag) overnight at 4°, protein A/G agarose beads, washed 6 times with lysis buffer, western blot; cells and bait not stated. (In western blotting, separated proteins are transferred to a membrane and probed.)

Chains of the proteins cited; added tags and fusions are not shown.
UniProt P01375: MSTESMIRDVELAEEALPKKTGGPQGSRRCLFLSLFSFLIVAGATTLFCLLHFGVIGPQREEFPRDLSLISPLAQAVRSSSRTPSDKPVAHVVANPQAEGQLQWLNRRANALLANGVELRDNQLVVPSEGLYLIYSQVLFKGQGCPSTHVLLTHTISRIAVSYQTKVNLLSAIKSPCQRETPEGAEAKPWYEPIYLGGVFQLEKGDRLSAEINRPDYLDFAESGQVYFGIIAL

Results are given in words; binding and its absence hold for the method and conditions named. In cells and extracts the contact can be indirect. Some binding calls cover weakened binding; strength is not graded here.

B1: DCAF7 (protein, UniProt P61962 1-342)
chain: MSLHGKRKEIYKYEAPWTVYAMNWSVRPDKRFRLALGSFVEEYNNKVQLVGLDEESSEFICRNTFDHPYPTTKLMWIPDTKGVYPDLLATSGDYLRVWRVGETETRLECLLNNNKNSDFCAPLTSFDWNEVDPYLLGTSSIDTTCTIWGLETGQVLGRVNLVSGHVKTQLIAHDKEVYDIAFSRAGGGRDMFASVGADGSVRMFDLRHLEHSTIIYEDPQHHPLLRLCWNKQDPNYLATMAMDGMEVVILDVRVPCTPVARLNNHRACVNGIAWAPHSSCHICTAADDHQALIWDIQQMPRAIEDPILAYTAEGEINNVQWASTQPDWIAICYNNCLEILRV
For B1, the binding result is “binds”.

The values are drawn from publication PMC13311996.
